This is an account of results in patent publication US10711043B2, “Compositions and vaccines comprising vesicles and methods of using the same” (priority 2013, dated 2020).

This experiment concerns HepG2 cells. Description: WST-1 cell proliferation assay on HepG2 cells. The class given is cell-based, human. To be noted: treated 72 h.

Converted amounts (≈) assume the structure as drawn.

Compound `COc1cccc2c1C(=O)c1c(O)c3c(c(O)c1C2=O)C[C@@](O)(C(=O)CO)C[C@@H]3O[C@H]1C[C@H](N)[C@H](O)[C@H](C)O1` [doxorubicin] registered an IC50 of 0.16 µg/mL (≈ 0.294 µM).

In general, IC50 refers to the midpoint of a concentration-inhibition curve. A higher IC50 goes with lower potency.
